# Data: the supplement of paper PMC8728848
# Some of the results follow.
# B1: Epa8 (Candida glabrata) (protein)
# chain: MGSSHHHHHHSSGLVPRGSHMASSRALSDYPLGCSPLLGTKLTPGLSMELYEYPLDNHGIGPHCWDPAYLNPEYPRTGFESHKLIGTAQNVMSLNFEHRTQDCHVEFSNLPASFNFPDQITLTNFTMLLYGYFKPKESGRYRFHMEADDLLLMNLGAGNAFDCCAHEATRNNLGDYIAYDIWAGTRKDVEVFLEKEVFYPLRLFFNNRDGRAALDFSYYLNGATEPGTDIPELLFSLPDGESCPAYI
# How the values were obtained:
# Assay in all cases: glycan array binding signal (z-score within array); higher = stronger binding
# Conditions in all cases: glycan notation: IUPAC condensed, linker removed
# [1] = target: Fuc(a1-2)Gal
# In short: (§1)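 Glycan array data came from 3228 arrays in the Consortium for Functional Glycomics database, and only arrays with an available protein sequence were kept. Glycan names were put into IUPAC-condensed notation, and columns mapping to the same glycan were averaged. The binding signal is a within-array Z-score, averaged across arrays of one protein sequence run at different concentrations or buffers and across linkers. A negative Z-score can be read as non-binding.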
# [2] = target: Fuc(a1-2)Gal(b1-3)GalNAc
# In short: as §1
# [3] = target: Fuc(a1-2)Gal(b1-3)GalNAc(a1-3)[Fuc(a1-2)]Gal(b1-4)Glc
# In short: as §1
# [4] = target: Fuc(a1-2)Gal(b1-3)GalNAc(a1-3)[Fuc(a1-2)]Gal(b1-4)GlcNAc
# In short: as §1
# [5] = target: Fuc(a1-2)Gal(b1-3)GalNAc(b1-3)Gal
# In short: as §1
# [6] = target: Fuc(a1-2)Gal(b1-3)GalNAc(b1-3)Gal(a1-4)Gal(b1-4)Glc
# In short: as §1
# [7] = target: Fuc(a1-2)Gal(b1-3)GalNAc(b1-4)[Neu5Ac(a2-3)]Gal(b1-4)Glc
# In short: as §1
# [8] = target: Fuc(a1-2)Gal(b1-3)GlcNAc
# In short: as §1
# [9] = target: Fuc(a1-2)Gal(b1-3)GlcNAc(b1-2)Man(a1-3)[Fuc(a1-2)Gal(b1-3)GlcNAc(b1-2)Man(a1-6)]Man(b1-4)GlcNAc(b1-4)GlcNAc
# In short: as §1
# [10] = target: Fuc(a1-2)Gal(b1-3)GlcNAc(b1-2)Man(a1-3)[Fuc(a1-2)Gal(b1-3)GlcNAc(b1-2)Man(a1-6)]Man(b1-4)GlcNAc(b1-4)[Fuc(a1-6)]GlcNAc
# In short: as §1
# [11] = target: Fuc(a1-2)Gal(b1-3)GlcNAc(b1-3)Gal(b1-4)Glc
# In short: as §1
# [12] = target: Fuc(a1-2)Gal(b1-3)GlcNAc(b1-3)GalNAc
# In short: as §1
# [13] = target: Fuc(a1-2)Gal(b1-3)GlcNAc(b1-3)[Fuc(a1-2)Gal(b1-3)GlcNAc(b1-6)]GalNAc
# In short: as §1
# [14] = target: Fuc(a1-2)Gal(b1-3)GlcNAc(b1-3)[Gal(b1-4)GlcNAc(b1-6)]Gal(b1-4)Glc
# In short: as §1
# [15] = target: Fuc(a1-2)Gal(b1-3)GlcNAc(b1-3)[Neu5Ac(a2-6)Gal(b1-4)GlcNAc(b1-6)]Gal(b1-4)Glc
# In short: as §1
# [16] = target: Fuc(a1-2)Gal(b1-3)GlcNAc6S
# In short: as §1
# [17] = target: Fuc(a1-2)Gal(b1-3)[Fuc(a1-4)]GlcNAc
# In short: as §1
# [18] = target: Fuc(a1-2)Gal(b1-3)[Fuc(a1-4)]GlcNAc(b1-2)Man(a1-3)[Fuc(a1-2)Gal(b1-3)[Fuc(a1-4)]GlcNAc(b1-2)Man(a1-3)]Man(b1-4)GlcNAc(b1-4)GlcNAc
# In short: as §1
# [19] = target: Fuc(a1-2)Gal(b1-3)[Fuc(a1-4)]GlcNAc(b1-2)Man(a1-3)[Fuc(a1-2)Gal(b1-3)[Fuc(a1-4)]GlcNAc(b1-2)Man(a1-6)]Man(b1-4)GlcNAc(b1-4)[Fuc(a1-6)]GlcNAc(b1-4)[Fuc(a1-6)]GlcNAc
# In short: as §1
# [20] = target: Fuc(a1-2)Gal(b1-3)[Fuc(a1-4)]GlcNAc(b1-3)[Fuc(a1-3)[Gal(b1-4)]GlcNAc(b1-6)]Gal(b1-4)Glc
# In short: as §1
# [21] = target: Fuc(a1-2)Gal(b1-3)[Fuc(a1-4)]GlcNAc(b1-3)[Gal(b1-4)GlcNAc(b1-6)]Gal(b1-4)Glc
# In short: as §1
# [22] = target: Fuc(a1-2)Gal(b1-4)Fuc(a1-3)]GlcNAc(b1-2)Man(a1-3)[Fuc(a1-2)Gal(b1-4)[Fuc(a1-3)]GlcNAc(b1-2)Man(a1-6)]Man(b1-4)GlcNAc(b1-4)GlcNAc
# In short: as §1
# [23] = target: Fuc(a1-2)Gal(b1-4)Glc
# In short: as §1
# [24] = target: Fuc(a1-2)Gal(b1-4)Glc6S
# In short: as §1
# [25] = target: Fuc(a1-2)Gal(b1-4)GlcNAc
# In short: as §1
# [26] = target: Fuc(a1-2)Gal(b1-4)GlcNAc(b1-2)Man
# In short: as §1
# [27] = target: Fuc(a1-2)Gal(b1-4)GlcNAc(b1-2)Man(a1-3)[Fuc(a1-2)Gal(b1-4)GlcNAc(b1-2)Man(a1-6)]Man(b1-4)GlcNAc(b1-4)GlcNAc
# In short: as §1
# [28] = target: Fuc(a1-2)Gal(b1-4)GlcNAc(b1-2)Man(a1-3)[Fuc(a1-2)Gal(b1-4)GlcNAc(b1-2)Man(a1-6)]Man(b1-4)GlcNAc(b1-4)[Fuc(a1-6)]GlcNAc
# In short: as §1
# [29] = target: Fuc(a1-2)Gal(b1-4)GlcNAc(b1-2)[Fuc(a1-2)Gal(b1-4)GlcNAc(b1-4)]Man(a1-3)[Fuc(a1-2)Gal(b1-4)GlcNAc(b1-2)Man(a1-6)]Man(b1-4)GlcNAc(b1-4)GlcNAc
# In short: as §1
# [30] = target: Fuc(a1-2)Gal(b1-4)GlcNAc(b1-3)Gal(b1-4)GlcNAc
# In short: as §1
binder,measurement,setting,value
B1,glycan array binding signal (z-score),[1],0.189
same,glycan array binding signal (z-score),[2],-0.392
same,glycan array binding signal (z-score),[3],-0.43
same,glycan array binding signal (z-score),[4],-0.029
same,glycan array binding signal (z-score),[5],0.551
same,glycan array binding signal (z-score),[6],0.557
same,glycan array binding signal (z-score),[7],-0.251
same,glycan array binding signal (z-score),[8],-0.172
same,glycan array binding signal (z-score),[9],1.21
same,glycan array binding signal (z-score),[10],0.141
same,glycan array binding signal (z-score),[11],-0.287
same,glycan array binding signal (z-score),[12],-0.189
same,glycan array binding signal (z-score),[13],-0.495
same,glycan array binding signal (z-score),[14],0.534
same,glycan array binding signal (z-score),[15],-0.205
same,glycan array binding signal (z-score),[16],-0.148
same,glycan array binding signal (z-score),[17],-0.773
same,glycan array binding signal (z-score),[18],0.514
same,glycan array binding signal (z-score),[19],0.464
same,glycan array binding signal (z-score),[20],-0.717
same,glycan array binding signal (z-score),[21],-0.168
same,glycan array binding signal (z-score),[22],4.2
same,glycan array binding signal (z-score),[23],-0.649
same,glycan array binding signal (z-score),[24],0.004
same,glycan array binding signal (z-score),[25],-0.45
same,glycan array binding signal (z-score),[26],0.225
same,glycan array binding signal (z-score),[27],-0.733
same,glycan array binding signal (z-score),[28],-0.33
same,glycan array binding signal (z-score),[29],-0.31
same,glycan array binding signal (z-score),[30],-0.773

# A different layout for some results above:
binder | measurement | setting | value
B1 | glycan array binding signal (z-score) | [9] | 1.21
same | glycan array binding signal (z-score) | [10] | 0.141
